{"sequences": {"note": "Amino acid sequences for entries named in this document (tags omitted).", "UniProt O15169": "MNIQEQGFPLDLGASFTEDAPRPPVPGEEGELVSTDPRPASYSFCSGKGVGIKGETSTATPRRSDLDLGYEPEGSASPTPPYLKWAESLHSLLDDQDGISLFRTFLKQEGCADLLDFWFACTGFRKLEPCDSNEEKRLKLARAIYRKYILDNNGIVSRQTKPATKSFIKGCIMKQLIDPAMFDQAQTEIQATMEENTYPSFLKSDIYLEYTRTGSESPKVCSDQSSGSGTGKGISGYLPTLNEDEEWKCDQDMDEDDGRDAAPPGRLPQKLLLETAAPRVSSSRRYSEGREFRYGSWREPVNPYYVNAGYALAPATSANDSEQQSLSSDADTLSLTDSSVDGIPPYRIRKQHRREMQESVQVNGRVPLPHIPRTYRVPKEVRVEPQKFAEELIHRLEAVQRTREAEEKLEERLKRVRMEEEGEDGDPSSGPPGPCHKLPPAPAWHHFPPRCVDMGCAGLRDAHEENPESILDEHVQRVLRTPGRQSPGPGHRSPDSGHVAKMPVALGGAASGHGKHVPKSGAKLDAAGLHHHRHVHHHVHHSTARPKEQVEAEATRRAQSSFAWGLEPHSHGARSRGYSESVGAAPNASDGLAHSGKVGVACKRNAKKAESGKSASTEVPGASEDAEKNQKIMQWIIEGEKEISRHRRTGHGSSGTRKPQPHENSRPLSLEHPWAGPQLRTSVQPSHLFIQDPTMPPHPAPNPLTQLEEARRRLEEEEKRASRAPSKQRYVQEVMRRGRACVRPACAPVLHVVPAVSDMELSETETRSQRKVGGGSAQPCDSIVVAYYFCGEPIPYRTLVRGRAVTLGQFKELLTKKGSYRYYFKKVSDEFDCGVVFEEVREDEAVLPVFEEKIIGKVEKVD", "UniProt P35222": "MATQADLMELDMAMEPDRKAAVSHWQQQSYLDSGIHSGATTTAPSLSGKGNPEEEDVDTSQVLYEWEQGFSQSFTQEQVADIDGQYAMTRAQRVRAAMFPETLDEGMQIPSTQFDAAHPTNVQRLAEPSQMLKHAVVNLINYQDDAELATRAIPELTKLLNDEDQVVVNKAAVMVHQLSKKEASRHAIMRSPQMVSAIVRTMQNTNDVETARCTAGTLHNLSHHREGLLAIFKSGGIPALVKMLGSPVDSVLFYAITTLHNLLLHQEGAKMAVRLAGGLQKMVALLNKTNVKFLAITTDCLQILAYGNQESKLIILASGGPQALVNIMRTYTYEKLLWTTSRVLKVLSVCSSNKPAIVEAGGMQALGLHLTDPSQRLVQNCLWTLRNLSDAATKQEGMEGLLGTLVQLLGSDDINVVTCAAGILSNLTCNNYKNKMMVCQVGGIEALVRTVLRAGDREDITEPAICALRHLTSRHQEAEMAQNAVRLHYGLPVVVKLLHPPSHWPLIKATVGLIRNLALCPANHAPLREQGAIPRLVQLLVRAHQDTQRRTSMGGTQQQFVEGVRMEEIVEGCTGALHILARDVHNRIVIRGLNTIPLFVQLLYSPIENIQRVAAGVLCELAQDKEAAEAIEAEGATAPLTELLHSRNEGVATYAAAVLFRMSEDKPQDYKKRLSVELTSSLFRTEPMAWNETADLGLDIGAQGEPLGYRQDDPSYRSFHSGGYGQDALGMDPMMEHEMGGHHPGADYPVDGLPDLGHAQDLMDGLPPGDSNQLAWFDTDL"}, "source": "paper PMC12859064", "molecules": {"B1": {"name": "Flag-TRIM15 in HCT116 cells (protein, UniProt Q9C019 1-465)", "chain": "MPATPSLKVVHELPACTLCAGPLEDAVTIPCGHTFCRLCLPALSQMGAQSSGKILLCPLCQEEEQAETPMAPVPLGPLGETYCEEHGEKIYFFCENDAEFLCVFCREGPTHQAHTVGFLDEAIQPYRDRLRSRLEALSTERDEIEDVKCQEDQKLQVLLTQIESKKHQVETAFERLQQELEQQRCLLLARLRELEQQIWKERDEYITKVSEEVTRLGAQVKELEEKCQQPASELLQDVRVNQSRCEMKTFVSPEAISPDLVKKIRDFHRKILTLPEMMRMFSENLAHHLEIDSGVITLDPQTASRSLVLSEDRKSVRYTRQKKSLPDSPLRFDGLPAVLGFPGFSSGRHRWQVDLQLGDGGGCTVGVAGEGVRRKGEMGLSAEDGVWAVIISHQQCWASTSPGTDLPLSEIPRGVRVALDYEAGQVTLHNAQTQEPIFTFTASFSGKVFPFFAVWKKGSCLTLKG"}, "B2": {"name": "endogenous TRIM15 (protein, UniProt Q9C019 1-465)", "chain": "MPATPSLKVVHELPACTLCAGPLEDAVTIPCGHTFCRLCLPALSQMGAQSSGKILLCPLCQEEEQAETPMAPVPLGPLGETYCEEHGEKIYFFCENDAEFLCVFCREGPTHQAHTVGFLDEAIQPYRDRLRSRLEALSTERDEIEDVKCQEDQKLQVLLTQIESKKHQVETAFERLQQELEQQRCLLLARLRELEQQIWKERDEYITKVSEEVTRLGAQVKELEEKCQQPASELLQDVRVNQSRCEMKTFVSPEAISPDLVKKIRDFHRKILTLPEMMRMFSENLAHHLEIDSGVITLDPQTASRSLVLSEDRKSVRYTRQKKSLPDSPLRFDGLPAVLGFPGFSSGRHRWQVDLQLGDGGGCTVGVAGEGVRRKGEMGLSAEDGVWAVIISHQQCWASTSPGTDLPLSEIPRGVRVALDYEAGQVTLHNAQTQEPIFTFTASFSGKVFPFFAVWKKGSCLTLKG"}}, "key": {"[1]": {"target": "endogenous Axin1 (human (endogenous in HCT116)) (UniProt O15169)", "test": "co-IP; HCT116 lysates, control IgG or anti-Axin1 or anti-β-TrCP antibody; in Fig. 3g, h cells with siCtrl or siTRIM15 for 72 h and MG132 (20 μM) for 6 h before lysis"}, "[2]": {"target": "endogenous Axin1 (human (endogenous in HCT116)) (UniProt O15169)", "test": "co-IP; Flag-TRIM15 and endogenous Axin1 in HCT116 cells; Western blot"}, "[3]": {"target": "endogenous Axin1 (human (endogenous in HCT116)) (UniProt O15169)", "test": "co-IP; HCT116 lysates, control IgG or anti-Axin1 or anti-β-TrCP antibody; in Fig. 3g, h cells with siCtrl or siTRIM15 for 72 h and MG132 (20 μM) for 6 h before lysis", "remark": "listed apart in the source"}}, "note": "Results are given in words; binding and its absence hold for the method and conditions named. Binding seen in cells or lysates may run through a third protein. Some entries that bind do so weakly or less than the wild type. For part of these data: Where a sequence is shown, tags or fusion partners need not be part of it."}
{"molecule": "endogenous phosphorylated β-catenin (from UniProt P35222 1-781)", "values": [{"measurement": "binding", "setting": "[1]", "value": "binds"}]}
{"molecule": "B1", "values": [{"measurement": "binding", "setting": "[2]", "value": "binds"}]}
{"molecule": "B2", "values": [{"measurement": "binding", "setting": "[3]", "value": "binds"}]}
